Reference: publication PMC6750887
Results are given in words; binding and its absence hold for the method and conditions named. In cells and extracts the contact can be indirect. Some results given as binding are weak or reduced against the parent protein; the word gives no strength.

Chains of the proteins cited; added tags and fusions are not shown.
UniProt P42224: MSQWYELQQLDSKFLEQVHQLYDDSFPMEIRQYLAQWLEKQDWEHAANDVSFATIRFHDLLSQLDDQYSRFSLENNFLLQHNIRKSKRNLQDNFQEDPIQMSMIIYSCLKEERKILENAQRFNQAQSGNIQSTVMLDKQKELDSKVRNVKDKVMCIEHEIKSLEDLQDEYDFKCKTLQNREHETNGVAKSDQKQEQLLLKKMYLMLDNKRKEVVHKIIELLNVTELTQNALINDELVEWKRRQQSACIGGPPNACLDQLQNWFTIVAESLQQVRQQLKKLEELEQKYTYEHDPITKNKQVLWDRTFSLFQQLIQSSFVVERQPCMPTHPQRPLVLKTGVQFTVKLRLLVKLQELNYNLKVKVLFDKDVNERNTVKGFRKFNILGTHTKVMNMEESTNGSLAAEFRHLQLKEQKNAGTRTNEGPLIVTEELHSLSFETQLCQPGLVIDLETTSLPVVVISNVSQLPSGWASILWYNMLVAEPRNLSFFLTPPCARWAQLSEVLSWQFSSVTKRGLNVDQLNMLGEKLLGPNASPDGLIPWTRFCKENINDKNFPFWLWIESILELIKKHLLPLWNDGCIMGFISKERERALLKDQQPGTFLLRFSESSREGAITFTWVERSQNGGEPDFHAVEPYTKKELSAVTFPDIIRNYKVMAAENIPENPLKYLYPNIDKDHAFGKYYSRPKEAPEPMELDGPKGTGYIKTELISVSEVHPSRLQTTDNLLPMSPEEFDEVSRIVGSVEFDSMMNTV

T1: protein tyrosine phosphatase-1B (PTP1B) (UniProt P18031)
T1 sequence: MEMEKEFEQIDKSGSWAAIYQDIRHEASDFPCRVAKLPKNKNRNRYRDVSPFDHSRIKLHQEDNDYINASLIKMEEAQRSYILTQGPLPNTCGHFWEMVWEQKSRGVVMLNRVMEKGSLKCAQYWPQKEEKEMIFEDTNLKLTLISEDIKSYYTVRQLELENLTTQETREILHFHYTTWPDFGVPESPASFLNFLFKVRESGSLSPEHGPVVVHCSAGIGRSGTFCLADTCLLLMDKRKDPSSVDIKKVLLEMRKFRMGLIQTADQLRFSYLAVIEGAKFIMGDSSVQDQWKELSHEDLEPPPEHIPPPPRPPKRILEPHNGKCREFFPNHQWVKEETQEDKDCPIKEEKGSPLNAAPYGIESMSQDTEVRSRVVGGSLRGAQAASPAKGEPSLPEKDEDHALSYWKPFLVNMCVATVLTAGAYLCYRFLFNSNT

B1: protein tyrosine phosphatase-1B (PTP1B) (enzyme, UniProt P18031 1-435)
chain: T1 sequence

How the values were obtained:
[1] = target: T1, protein tyrosine phosphatase-1B (PTP1B); assay: co-IP; HEK293 cells transfected with plasmids encoding STAT1 and PTP1B; lysates immunoprecipitated for STAT1 or PTP1B with Protein A/G-agarose beads and the relevant antibody, blotted for the Flag-tag
STAT1 = STAT1 (UniProt P42224); assay: as above

Molecule	binding [1]	binding (STAT1)
STAT1 (from UniProt P42224 1-750)	binds	
B1		binds
